Earlier results, collected in patent publication US8404655B2, “Inhibition of palmitoyl acyl transferase expression and/or activity for the regulation of antiproliferative factor activity” (University of Florida Research Foundation, Inc., priority 2007, dated 2013).
Some of these results come from one statement about several compounds together. At least one structure is not confirmed: it was looked up by name or label, or the drawing left a doubt.

System: IC patients
Settings: oral Elmiron; intravesical DMSO; cited from earlier work

C[S+](C)[O-] [DMSO]
IC patients helped symptomatically: < 50%
